Measured values published in publication PMC10665492.
These are yes or no findings as the source states them, for the method shown. Binding seen in cells or lysates may run through a third protein. Some results given as binding are weak or reduced against the parent protein; the word gives no strength.

By UniProt entry, the sequences of proteins in these tests, tags left out. Where a name states a change or a piece, a line headed by the entry shows the natural chain unless it says otherwise. Chains listed by the source or under a name are the forms on record and can include a tag or linker.
UniProt P31750: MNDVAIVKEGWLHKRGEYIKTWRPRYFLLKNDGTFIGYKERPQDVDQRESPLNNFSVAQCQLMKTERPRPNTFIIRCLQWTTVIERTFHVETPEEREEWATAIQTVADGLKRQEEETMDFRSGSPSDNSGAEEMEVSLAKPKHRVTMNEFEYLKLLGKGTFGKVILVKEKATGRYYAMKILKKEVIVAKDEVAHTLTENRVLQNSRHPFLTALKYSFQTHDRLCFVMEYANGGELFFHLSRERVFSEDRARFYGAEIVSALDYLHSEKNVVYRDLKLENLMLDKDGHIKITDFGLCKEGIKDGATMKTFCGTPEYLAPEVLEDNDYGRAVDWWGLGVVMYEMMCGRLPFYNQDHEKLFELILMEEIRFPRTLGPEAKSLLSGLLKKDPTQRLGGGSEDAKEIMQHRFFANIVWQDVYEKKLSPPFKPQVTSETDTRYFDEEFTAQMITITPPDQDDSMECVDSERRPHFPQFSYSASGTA
V5-tagged full-length HIF-3α1 S524A mutant (Q9Y2N7-2, form named): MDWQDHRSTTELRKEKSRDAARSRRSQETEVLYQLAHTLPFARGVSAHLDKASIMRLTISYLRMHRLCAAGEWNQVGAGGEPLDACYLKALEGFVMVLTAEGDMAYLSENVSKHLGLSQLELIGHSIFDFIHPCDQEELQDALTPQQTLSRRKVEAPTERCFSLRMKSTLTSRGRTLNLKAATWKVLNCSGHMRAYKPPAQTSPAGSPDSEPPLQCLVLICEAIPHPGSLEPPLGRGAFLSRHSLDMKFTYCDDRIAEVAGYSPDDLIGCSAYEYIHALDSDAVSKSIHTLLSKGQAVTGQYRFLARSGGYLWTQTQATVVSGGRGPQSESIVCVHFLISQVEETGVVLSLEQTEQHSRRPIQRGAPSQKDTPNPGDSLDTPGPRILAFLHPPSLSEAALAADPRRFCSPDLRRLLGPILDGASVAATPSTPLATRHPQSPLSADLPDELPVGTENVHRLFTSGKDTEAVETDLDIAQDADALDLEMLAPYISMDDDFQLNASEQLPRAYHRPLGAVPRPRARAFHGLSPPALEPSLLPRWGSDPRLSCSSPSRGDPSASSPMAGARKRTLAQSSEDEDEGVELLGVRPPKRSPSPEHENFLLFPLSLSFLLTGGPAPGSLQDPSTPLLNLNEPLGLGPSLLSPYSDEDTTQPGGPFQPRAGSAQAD
V5-tagged full-length HIF-3α1 wild-type (Q9Y2N7-2, form named): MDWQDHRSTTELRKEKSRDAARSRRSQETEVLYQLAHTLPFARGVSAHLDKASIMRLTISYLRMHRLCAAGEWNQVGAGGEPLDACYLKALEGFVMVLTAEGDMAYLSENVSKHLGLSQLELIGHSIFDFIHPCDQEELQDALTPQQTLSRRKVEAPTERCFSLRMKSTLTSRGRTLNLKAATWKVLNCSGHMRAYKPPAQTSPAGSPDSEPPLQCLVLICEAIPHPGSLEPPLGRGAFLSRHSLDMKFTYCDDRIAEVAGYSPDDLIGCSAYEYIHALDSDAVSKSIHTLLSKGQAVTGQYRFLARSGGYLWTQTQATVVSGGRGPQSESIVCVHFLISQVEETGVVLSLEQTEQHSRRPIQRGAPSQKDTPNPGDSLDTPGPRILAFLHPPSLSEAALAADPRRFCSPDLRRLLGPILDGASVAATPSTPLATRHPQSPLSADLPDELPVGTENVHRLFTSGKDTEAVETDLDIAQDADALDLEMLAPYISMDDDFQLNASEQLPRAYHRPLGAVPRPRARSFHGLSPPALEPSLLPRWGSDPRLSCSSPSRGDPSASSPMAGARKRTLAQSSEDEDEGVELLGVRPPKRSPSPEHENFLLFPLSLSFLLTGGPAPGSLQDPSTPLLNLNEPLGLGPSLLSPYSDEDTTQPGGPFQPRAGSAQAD

Molecular target: HA-tagged full-length PKB (UniProt P31750)
Test: co-IP; anti-HA immunoprecipitation (protein G Sepharose) from lysates of HEK 293 cells cotransfected with V5-HIF-3α1 WT or S524A and HA-PKB, MG132 for 4 h before lysis; lysis buffer 50 mM Tris/HCl pH 7.5, 150 mM NaCl, 1% Triton X-100, 2 mM EDTA, 2 mM EGTA; 4°C; IP blotted with V5 antibody

## V5-tagged full-length HIF-3α1 S524A mutant (from UniProt Q9Y2N7-2 1-667)
  binding: no binding

## V5-tagged full-length HIF-3α1 wild-type (from UniProt Q9Y2N7-2 1-667)
  binding: binds
